Literature values, collected in patent US20080194024A1, “Culture of Non-Embryonic Cells at High Cell Density” (priority 2005, published 2008).
At least one compound was matched to its structure with a doubt left.

Test system: CDK1-cyclin B complex
Details: cited from earlier work

Structure (SMILES): [Li] [Lithium]
- Effect on CDK1-cyclin B complex: No effect
